The values that follow come from patent US20140178394A1.

No constants are given. Whether binding was seen depends on the method and setting. A result given as binding can be weak or reduced; the word gives no strength.

The target of this assay is HLA-A*0201 on the CEM.T2 cell line (T2) (human). The assay can be described thus: T2 cell HLA-A*0201 stabilization, flow cytometry. For orientation: In flow cytometry, cells or beads pass a laser one at a time.

B1: antigen peptide N4-145 (…) (peptide)
peptide: VLVPPLPSL
Take B1: the binding entry is “binds”.
